Source: ChEMBL document CHEMBL3988442, “University of Dundee, Small-Polar-MMV Screening Library” (2021).

Protein sequences, listed by entry. Tags and fused reporters are not part of them.
UniProt E9BF75, entry or part of it: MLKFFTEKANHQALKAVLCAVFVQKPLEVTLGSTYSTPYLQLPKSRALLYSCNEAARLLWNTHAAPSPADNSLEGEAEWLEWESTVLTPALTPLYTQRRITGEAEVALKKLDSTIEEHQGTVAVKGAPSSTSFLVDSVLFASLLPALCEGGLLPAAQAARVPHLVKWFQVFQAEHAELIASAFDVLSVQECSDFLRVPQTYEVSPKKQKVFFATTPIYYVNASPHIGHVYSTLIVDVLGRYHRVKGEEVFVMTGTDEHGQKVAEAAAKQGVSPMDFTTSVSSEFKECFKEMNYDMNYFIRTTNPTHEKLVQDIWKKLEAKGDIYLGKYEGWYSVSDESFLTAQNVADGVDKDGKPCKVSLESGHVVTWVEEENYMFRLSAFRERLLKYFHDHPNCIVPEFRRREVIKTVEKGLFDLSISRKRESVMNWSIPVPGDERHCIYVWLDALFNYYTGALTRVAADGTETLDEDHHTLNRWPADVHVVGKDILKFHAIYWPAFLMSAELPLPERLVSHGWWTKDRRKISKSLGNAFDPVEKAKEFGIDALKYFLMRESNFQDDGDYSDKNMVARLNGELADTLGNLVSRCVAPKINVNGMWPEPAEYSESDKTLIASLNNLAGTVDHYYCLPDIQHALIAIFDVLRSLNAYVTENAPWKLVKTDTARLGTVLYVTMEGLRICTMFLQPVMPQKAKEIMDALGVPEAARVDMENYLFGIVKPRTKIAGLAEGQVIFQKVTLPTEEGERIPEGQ

All values are in %.
The record does not define 0% and 100%; most values in the screen are far below 50% and negative numbers occur (in some assays of this library far below -100).
Compounds were drawn at random from those tested, without regard to their results.
A dash means the value is not listed here; it may have been measured.

A: 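Assay on Mycobacterium tuberculosis, filed only as a heat shock assay from Cornell; the read-out is not stated. The concentration is filed as 10 mM, unlikely as a test dose, so the dose is not known. The record gives no direction; compounds that gave an IC50 in retests scored well above the rest, so higher reads as stronger inhibition. Size under these conditions: about 69,000 compounds, about 930 of them at 50% or above in at least one test.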
B: 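Primary screen of methionyl-tRNA synthetase; the read-out is not stated. Target: Methionyl-tRNA synthetase (putative), Leishmania donovani (UniProt E9BF75). The test concentration is not given. Values are per cent inhibition. Size under these conditions: about 68,000 compounds, about 24 of them at 50% or above in at least one test.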
C: 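Whole-cell assay for inhibitors of Mycobacterium tuberculosis growth, labelled Cornell in the record; the read-out is not stated. The concentration is filed as 10 mM, unlikely as a test dose, so the dose is not known. Higher means stronger inhibition (inferred from two other growth screens of the library). Size under these conditions: about 53,000 compounds, about 900 of them at 50% or above in at least one test.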

compound | A | B | C
CC(C(=O)NCCCN1CCCCCC1=O)n1cncn1 (centres undefined) | -4.939 | 6.299 | -3.607
Cn1ccnc1SCCNC(=O)CC1CCc2ccccc21 (centres undefined) | -0.635 | 11.56 | -1.472
COCCn1ccc(NC(=O)Nc2cccc(C#N)c2)n1 | 15.42 | 7.311 | -47.14
Cc1cc(C(=O)N2CCCC2)ccc1NCc1nc(CC(C)C)no1 | -3.438 | 21.37 | -8.255
Cn1cccc1C(=O)N1CCc2ccc(=O)n(C)c2CC1 | -17.91 | 13.71 | -
Cc1ccc(CNC(=O)N2CCN(Cc3ccsc3)CC2)n1C | 26.25 | 10.49 | -
O=C(Cc1csc(N2CCNC2=O)n1)NC(c1ccccc1)C1CC1 (centres undefined) | -10.6 | 10.84 | -11.32
CC(C)N1CCc2[nH]nc(C(=O)N3CCCC3C)c2C1 (centres undefined) | -1.192 | 7.222 | -
NC(=O)CSCC(=O)NCC1CCCC1 | 7.528 | 18.05 | -10.13
COc1ccc2c(c1)C1(CCN(Cc3ccoc3)CC1)N(C)CC2 | 4.106 | 12.75 | 12.35
CCCn1nc(C)c(CNC(=O)c2snnc2C)c1C | 14.12 | 14.52 | 3.61
[H][C@]12CN(c3ncccn3)C[C@@]1([H])S(=O)(=O)CC[C@@H]2C(=O)NC(C)C | 9.837 | - | 12.84
CNc1nc(C(=O)N2CCN(c3cc(C)nc(C)c3)CC2)cs1 | -19.71 | 12.79 | -
Cc1nc2c(C)cccc2cc1C(=O)N1CCC2(CCCNC2)C1 (centres undefined) | 8.996 | 12.72 | 13.87
O=C(NCCNc1ncccn1)N1CCCC(C(F)(F)F)C1 (centres undefined) | 0.7035 | 14.86 | -
O=C(Cc1cccc(F)c1F)NS(=O)(=O)c1cncc(Cl)c1 | -12.05 | 13.19 | -3.528
Cc1cc(C)n(CC2CCCN2C(=O)c2cccc3c2OCCO3)n1 (centres undefined) | -25.26 | 18.73 | -
CN1CCc2c(CNc3ncccn3)n[nH]c2C1.O=C(O)C(F)(F)F | -19 | - | -78.48
OC1(CN2CCCC2)CCCN(Cc2cnc(-c3ccccc3)nc2)C1 (centres undefined) | 25.38 | 6.835 | 3.355
CC(C)Cn1cc(NCc2cscn2)cn1 | -23.61 | -0.2688 | -
O=C(NCC1CCCO1)c1cc(Sc2ncccn2)ccn1 (centres undefined) | -11.4 | 10.76 | 13.02
Cc1cc(C(=O)NCC2OCCc3cn(CC4CC4)nc32)c(C)[nH]1 (centres undefined) | 105.1 | 22.53 | 8.439
CNC(=O)CN1CCCC12CCN(C(=O)c1ccsc1)CC2 | - | 14.48 | -
CC1=N[C@@]2(CC[C@@H]3CN(C(=O)NCc4ccccc4C)C[C@@H]32)C(=O)N1 | - | 6.667 | -
CCN(Cc1noc(C2CC2)n1)Cc1ccc(C#N)cc1F | -0.4412 | 9.317 | 19.55
O=C(O)C(F)(F)F.O=C(O)C(F)(F)F.[H][C@@]12CCN(CC3CC3)[C@]1([H])CC[C@H](C(=O)NCCc1ccncc1)O2 | -40.36 | - | 11.65
CC(C)C[C@@H](N)C(=O)N(C)Cc1csc(C(C)C)n1 | -7.083 | 6.497 | -31.05
Cn1nc(COc2cccnc2)c2c1CCN(Cc1ccco1)C2 | - | 4.38 | -
O=C(N1CCCC1)N1CCC[C@]2(C[C@@H](OCc3ccncc3)CO2)C1 | - | 5.537 | -
Cn1cc(C(=O)NCc2cncc3c2CCNC3)cn1 | - | -1.173 | -
CCOC(=O)C1(CCOC)CCN(Cc2nccn2CC)CC1 | -6.485 | 10.65 | 28.11
CCC(=O)NCC1(O)CCC(C(C)(C)C)CC1 (centres undefined) | -44.05 | 10.59 | 8.806
COCc1cncc2c1CCN(C(=O)c1ccc(C#N)cc1)C2 | - | 16.62 | -
Cc1nc(CN2C(=O)C[C@H]3[C@H]2CCN3CC2CCOC2)cs1 (some centres undefined) | - | 9.202 | -
CC(=O)N1CCC2(CCN(C(=O)c3ccc(F)c(C(F)(F)F)c3)CC2)C1 | -26.31 | 3.922 | 12.64
Cc1ccc(-c2cc(N)c(=O)n(CC(=O)NC3CCCC3)n2)s1 | -25.1 | 2.589 | -35.82
O=C(NCc1ccccc1Cn1ccnc1)N1CCOCC1 | -14.75 | 15.05 | 8.934
[H][C@]12CNC[C@@]1(C(=O)NCCSC(C)(C)C)CN(S(C)(=O)=O)C2 | -20.41 | - | -
Cc1oncc1C(=O)N1CC2CC1(C(=O)N(C)C)C2 | -0.6901 | 3.361 | -64.56
CC(c1cccnc1)N(C)S(C)(=O)=O (centres undefined) | -5.954 | 8.964 | 16.02
CS(=O)(=O)N1C[C@@H]2OCC(=O)N(CC3CCC3)[C@@H]2C1 | - | 4.396 | -
COc1ccc(C2CCCN2C(=O)c2ccnc(NC3CC3)c2)cc1 (centres undefined) | -30.17 | 4.482 | -15.82
Cn1ccc(C(=O)N2CCC[C@]3(C[C@@H](OCc4ccccn4)CO3)C2)n1 | - | 9.091 | -
CC(C)c1nccn1C1CCCN(C(=O)c2cc(C3CC3)on2)C1 (centres undefined) | -0.3275 | 21.14 | -26.64
CNC(=O)C1(N2CCC[C@H]2C(=O)NC2CC2)CCCCC1 | - | 13.74 | -
O=C(O)C(F)(F)F.[H][C@]12OCCC[C@]1([H])N(C(=O)c1ccc(C)o1)C[C@H]2OCc1cccnc1 | -29.44 | - | -
Cc1ccc(=O)n(CC2(O)CCN(Cc3cccs3)CC2)n1 | 2.69 | 16.15 | 11.54
CC(C)OCCOCc1cccc(NC(=O)N2CCCC(O)C2)c1 (centres undefined) | 11.86 | 13.13 | -7.744
Cc1ccc(NC(=O)Cc2c(C)nc3c(c2C)c(=O)[nH]n3C)cc1F | 5.112 | 21.33 | 7.377
CN(CCc1ccccc1)Cc1nc2c(cnn2C)c(=O)[nH]1 | 14.44 | 14.81 | -22.8
CCOCCN1Cc2ncn(C)c2C(COCC2CCOCC2)C1.O=C(O)C(F)(F)F.O=C(O)C(F)(F)F (centres undefined) | -6.431 | - | 25
O=C(O)C(F)(F)F.O=C(c1ccccn1)N1CCCC2(CCN(c3ccsc3)C2=O)C1 (centres undefined) | -34.78 | - | -16.42
Cc1occc1CNC(=O)NCCN(C)C1CCCC1 | -0.8121 | 11.35 | -
O=C(Nc1ccccc1F)NC1(CO)CCOCC1 | 4.853 | 18.12 | -
N[C@H]1CN(Cc2cnc(N3CCCC3)nc2)C[C@@H]1C1CC1 | -35.9 | -1.229 | 11.72
O=c1n(Cc2ccccc2F)nc2ncccn12 | -17.39 | 6.775 | -18.94
[H][C@]12CC[C@](O)(c3ccc(C)cc3)[C@@]1([H])CN(S(=O)(=O)CC)C2 | -8.726 | - | -9.252
Cc1cccc(-n2ncc3c2CCCC3NCc2cnn(C)c2C)c1C (centres undefined) | -5.291 | 8.908 | 24.69
Cc1nn(C)c2cnn(Cc3ccc(C(=O)NC4CC4)cc3)c12 | 4.672 | 13.05 | -41.99
O=C(CC1CC1)N1CC[C@H]2OCC[C@@]2(COc2ncccc2F)C1 | - | 5.842 | -
CC(C)n1cc(C(=O)NCCCc2csc(N)n2)cn1 | -3.734 | 21.33 | 8.204
CO[C@@H]1CCN(C(=O)Cc2ccc(F)cc2)[C@@H]1Cc1cccnc1 | - | 8.791 | -
Cc1cc(C)n(CC2CCCN2C(=O)Cc2csc(C)n2)n1 (centres undefined) | -1.258 | 2.308 | -7.276
COc1ccc2c(=O)n(CC3CC3)ccc2c1OC | -5.208 | - | -
Cc1ccc(C(=O)N(C)Cc2csc(C)n2)c(=O)[nH]1 | 9.036 | 16.9 | 25.41
CCn1ncnc1CN1CCc2[nH]cnc2C1CCc1ccccc1 (centres undefined) | 18.26 | 5.455 | 35.49
CCNC(=O)NC(=O)CN1CCC(c2cccc(F)c2)C1 (centres undefined) | -26.29 | 17.49 | -

Repeated from the top, 9 entries:

compound	A	B	C
CC(C(=O)NCCCN1CCCCCC1=O)n1cncn1 (centres undefined)	-4.939	6.299	-3.607
Cn1ccnc1SCCNC(=O)CC1CCc2ccccc21 (centres undefined)	-0.635	11.56	-1.472
COCCn1ccc(NC(=O)Nc2cccc(C#N)c2)n1	15.42	7.311	-47.14
Cc1cc(C(=O)N2CCCC2)ccc1NCc1nc(CC(C)C)no1	-3.438	21.37	-8.255
Cn1cccc1C(=O)N1CCc2ccc(=O)n(C)c2CC1	-17.91	13.71	-
Cc1ccc(CNC(=O)N2CCN(Cc3ccsc3)CC2)n1C	26.25	10.49	-
O=C(Cc1csc(N2CCNC2=O)n1)NC(c1ccccc1)C1CC1 (centres undefined)	-10.6	10.84	-11.32
CC(C)N1CCc2[nH]nc(C(=O)N3CCCC3C)c2C1 (centres undefined)	-1.192	7.222	-
NC(=O)CSCC(=O)NCC1CCCC1	7.528	18.05	-10.13